This is one part of the list. The main result of the screen is listed elsewhere. These columns were measured beside it and carry no call. Compounds called inactive in the main read-out are mostly missing here. Potencies come from curve fits of mixed quality, noted in brackets.

The experiment in a line: qHTS Assay for Modulators of Lamin A Splicing. Conditions: HeLa LMNA splicing GFP/RFP minigene ratio, 48 h. An outline of the steps:
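Read-out is the ratio of GFP to DsRed2 object intensity, acquired by 488 nm laser-scanning cytometry on HeLa lamin A-EGFP minigene reporter cells. Compound incubation 48 hrs at 37 °C in Opti-MEM with 2% FBS; DMSO 0.5% final.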

Setting [1] is: measured here: RFP viability control channel.
The mark [2] stands for this setting: measured here: GFP splicing reporter channel.

On to `Cn1cccc1C1NC(=O)c2c(sc3c2CCC(C(C)(C)C)C3)N1` (stereo not drawn), for which the AC50 under setting [1] was 31.6 µM [rising, single point]. `CC(C)[C@H](NC(=O)c1ccc(C(C)(C)C)cc1)C(=O)Nc1nnc(C2CC2)s1`: the AC50 reads like this: under setting [2], 12.6 µM [rising, single point]; under setting [1], 22.4 µM [rising, single point]. Regarding `CC1CC(C)(C)N(C(=O)CSc2ccc(-c3ccc(F)cc3)nn2)c2ccccc21` (stereo not drawn), the AC50 is 22.4 µM [falling, single point] under setting [2] and 35.5 µM [falling, single point] under setting [1]. Turning to `Clc1ccc(CSc2nnc(CNc3cccc(Cl)c3)o2)cc1`, the AC50 under setting [1] is 35.5 µM [rising, single point]. Consider `CC(Sc1nnnn1C1CCCCC1)C(=O)O` (stereo not drawn), for which, under setting [2], the half-maximal activity concentration (AC50) was 14.1 µM [falling, single point].

Turning to `COc1ccccc1NS(=O)(=O)c1cc(NC(=O)c2sc3cc(Cl)ccc3c2Cl)ccc1C`, the AC50 under setting [2] was 28.2 µM [falling, single point] and the AC50 under setting [1] is 12.6 µM [falling, partial curve, poor fit]. For `CCCCCCCC[n+]1cccc(C(=O)N(CC)CC)c1`, the AC50 runs as follows: under setting [2], 11.2 µM [rising, partial curve]; under setting [1], 0.794 µM [rising, partial curve]. For the molecule `CC(=O)N1CCN(c2ccc(Nc3nc(C)nc4c3oc3ccccc34)cc2)CC1`, the concentration at half-maximal activity (AC50) is 10 µM [rising, partial curve] under setting [2] and 11.2 µM [rising, partial curve] under setting [1].

Regarding `CCN1CCN(C(=O)CSc2cc(=O)n(CC)c3ccccc23)CC1`, under setting [1], the AC50 is 12.6 µM [rising, single point]. As for `Cc1cc(NC(=S)N(CCCN2CCN(C)CC2)Cc2ccco2)ccc1Cl`, under setting [2], the AC50 was 0.00355 µM [falling, full curve, poor fit]. Take `O=C(CN1CCOCC1)Nc1nc(-c2ccc3c(c2)CCN3S(=O)(=O)c2ccccc2)cs1`: the AC50 under setting [1] was 15.8 µM [rising, single point]. Consider `Cc1ccc(S(=O)(=O)N2CCCCC2)cc1NC(=O)c1ccc2ccccc2n1`, for which the AC50 runs as follows: under setting [2], 3.16 µM [rising, full curve, poor fit]; under setting [1], 3.55 µM [rising, full curve, poor fit].

For the molecule `S=C(Nc1ccccc1)Nc1nc2ccccc2n1CCOc1ccc(Br)cc1`, the AC50 under setting [2] was 35.5 µM [falling, single point] and the concentration at half-maximal activity (AC50) under setting [1] was 35.5 µM [falling, single point]. Take `O=c1[nH]c(CN2CCN(c3ccccc3)CC2)nc2scc(-c3ccccc3)c12`: the AC50 under setting [1] is 12.6 µM [rising, partial curve]. Still for that read-out and setting: the figure for `CN(C)/C=C/C(=O)/C=C/c1cn(-c2ncc(C(F)(F)F)cc2Cl)c2ccccc12` is 35.5 µM [rising, single point]. Still for that read-out and setting: under `CCCCN(CCCC)S(=O)(=O)c1ccc(NC(=O)Cc2cccs2)cc1` stands 35.5 µM [rising, single point]; under `COc1ccccc1N1CCN(CCN2C(=O)CC3(CCCC3)CC2=O)CC1`, 6.31 µM [falling, single point].

Consider `C[C@H]1[C@@H](O)[C@@H](C)\C=C/C=C\C=C/C=C\C=C/C=C\C=C/[C@@H](O[C@H]2O[C@@H](C)[C@@H](O)[C@@H](N)[C@@H]2O)C[C@@H]2O[C@](O)(C[C@@H](O)C[C@@H](O)[C@@H](O)CC[C@@H](O)C[C@@H](O)CC(=O)O[C@H]1C)C[C@@H](O)[C@H]2C(=O)O` (stereo in doubt), for which, under setting [2], the AC50 is 0.000891 µM [falling, full curve].

For the molecule `c1ccc(CCN2CCN(c3ncnc4c3cnn4-c3ccccc3)CC2)cc1`, the concentration at half-maximal activity (AC50) under setting [1] was 35.5 µM [rising, single point]. On the same count and under the same terms, under `Nc1ccc(C(=O)OCC(=O)N2c3ccccc3Sc3ccccc32)cc1[N+](=O)[O-]` stands 14.1 µM [rising, single point]; under `COC(=O)c1ccccc1NC(=O)CNc1cc(OC)c(OC)cc1C`, 2.24 µM [rising, full curve]. On the same count and under the same terms, the figure for `COc1ccc(-c2cn3cc(C)ccc3n2)cc1F` is 12.6 µM [falling, partial curve, poor fit]. Consider `O=C(CN1CCN(S(=O)(=O)c2ccc(Cl)cc2)CC1)NC(=O)NC1CCCCC1`, for which the AC50 runs as follows: under setting [2], 12.6 µM [rising, single point]; under setting [1], 20 µM [rising, single point].

In the case of `Cc1sc2ncnc(NCCc3ccc(S(N)(=O)=O)cc3)c2c1C`, the AC50 under setting [1] was 2.24 µM [rising, full curve].

`COc1cccc(/C=C/C(=O)OCC(=O)Nc2ccc(S(=O)(=O)N3CCCC3)cc2)c1`: the AC50 under setting [1] is 0.0501 µM [falling, full curve, poor fit].

Regarding `CCCNC(=O)c1cc2n(n1)CCCN(Cc1ccc(C)cc1)C2=O`, the AC50 under setting [2] is 0.0501 µM [falling, full curve, poor fit]. On the same count and under the same terms, the figure for `COc1ccc(C(=O)/C=C/c2cccs2)c(OC(=O)c2cccc([N+](=O)[O-])c2)c1` is 35.5 µM [falling, single point]. Consider `Cc1cc(-c2nnc(-c3cc4ccccc4oc3=O)o2)c(C)n1-c1ccccc1`, for which the AC50 under setting [2] is 3.16 µM [rising, single point] and the AC50 under setting [1] is 4.47 µM [rising, single point]. As to `CN1CCN(c2ncc3nc(-c4cccc(C#N)c4)c(=O)n(CCc4ccccc4)c3n2)CC1`, the AC50 under setting [2] was 12.6 µM [falling, partial curve] and the concentration at half-maximal activity (AC50) under setting [1] was 22.4 µM [falling, single point]. Take `Cc1nc(CC(C)C)cc(C(=O)N2CCCC(CNS(=O)(=O)c3cccs3)C2)n1` (stereo not drawn): the AC50 under setting [2] is 0.0316 µM [rising, full curve, poor fit].

On to `CCn1c(=O)cc(SCC(=O)Nc2ccc(OC)c(OC)c2)c2ccccc21`, for which the AC50 under setting [1] is 12.6 µM [rising, partial curve]. For `COc1ccc2ccccc2c1C(O)c1nccn1C` (stereo not drawn), the concentration at half-maximal activity (AC50) under setting [2] is 11.2 µM [rising, partial curve]. Turning to `Cc1ccc(CONC(=O)c2ccc(OC(F)F)cc2)cc1`, the half-maximal activity concentration (AC50) under setting [2] is 5.62 µM [falling, partial curve] and the half-maximal activity concentration (AC50) under setting [1] is 4.47 µM [falling, partial curve]. For `O=C(NCc1nnc2c3ccccc3c(-c3ccccc3)nn12)c1ccccc1Cl`, the half-maximal activity concentration (AC50) is 12.6 µM [rising, partial curve, poor fit] under setting [2] and 22.4 µM [rising, partial curve, poor fit] under setting [1]. Take `Cn1nc(C(F)(F)F)c(C#N)c1N1CCN(c2ccc(F)cc2)CC1`: the concentration at half-maximal activity (AC50) under setting [1] is 11.2 µM [rising, single point]. Consider `CN(C)CCCn1c(-c2ccc(Cl)cc2)csc1=Nc1ccccc1`, for which the half-maximal activity concentration (AC50) under setting [2] was 22.4 µM [falling, single point]. `CCOc1cccc(CN2CCCC(C(=O)c3cccc(C(F)(F)F)c3)C2)c1O` (stereo not drawn): the AC50 under setting [1] is 2.82 µM [rising, single point].

Consider `Cc1cccc(CNc2ncnc3ccc(-c4c(C)noc4C)cc23)c1`, for which the AC50 is, setting by setting: under setting [2], 0.708 µM [falling, full curve]; under setting [1], 6.31 µM [rising, full curve]. With `CCC(C)(C)n1nnnc1CN1CCN(C(c2ccccc2)c2ccccc2)CC1`, the concentration at half-maximal activity (AC50) under setting [2] was 15.8 µM [rising, single point] and the AC50 under setting [1] was 15.8 µM [rising, single point].

For the molecule `Cc1ccc(C(=O)CSc2nnc(COc3cccc4cccnc34)o2)cc1`, the half-maximal activity concentration (AC50) was 14.1 µM [rising, partial curve] under setting [2] and 15.8 µM [rising, single point] under setting [1].

Consider `COc1ccc(-c2cc(CNS(=O)(=O)c3ccccc3)on2)cc1`, for which the half-maximal activity concentration (AC50) under setting [2] was 11.2 µM [falling, partial curve] and the AC50 under setting [1] was 35.5 µM [falling, partial curve, poor fit].

As to `CNC(=O)/C(=C/c1ccc2c(c1)OCO2)NC(=O)c1ccc(Br)cc1`, the AC50 under setting [1] is 0.00447 µM [rising, full curve, poor fit]. `O=C(c1ccco1)N(Cc1cccs1)c1ccc(F)cc1`: the AC50 was 0.0355 µM [falling, full curve, poor fit] under setting [2] and 0.0631 µM [falling, full curve, poor fit] under setting [1].

With `CCN(CC)C(=O)c1oc2ccc(S(=O)(=O)N3CCCCCC3)cc2c1C`, under setting [1], the half-maximal activity concentration (AC50) is 15.8 µM [rising, partial curve]. Still for that read-out and setting: the figure for `Cc1cc(N/N=C/c2ccccc2Br)nc2ccccc12` is 35.5 µM [rising, single point]; for `O=C(CN1CCN(C/C=C/c2ccccc2)CC1)Nc1cc([N+](=O)[O-])ccc1Cl` it is 12.6 µM [rising, single point]. Same read-out and setting: under `Cc1cc(C(=O)CCl)c(C)n1-c1c(C)n(C)n(-c2ccccc2)c1=O` stands 0.0355 µM [rising, full curve, poor fit]. For `CC1Cc2ccccc2N1C(=S)Nc1cccc(S(=O)(=O)N(C)C)c1` (stereo not drawn), the AC50 under setting [2] is 2.51 µM [rising, partial curve, poor fit].

As for `Cc1ccc(-c2csc3ncnc(Sc4nnc(CN5CCCCCC5=O)o4)c23)cc1`, the AC50 under setting [2] was 5.62 µM [rising, single point] and the concentration at half-maximal activity (AC50) under setting [1] was 5.62 µM [rising, single point]. On to `CC(C)(C)NC(=O)CCCSc1nc2ccccc2s1`, for which, under setting [1], the half-maximal activity concentration (AC50) was 35.5 µM [rising, single point]. Same read-out and setting: the figure for `CCOC(=O)c1c(-c2ccccc2)csc1NC(=O)CSc1nc(N)cc(N)n1` is 12.6 µM [rising, partial curve]. In the case of `CCOC(=O)/C=c1\s/c(=C\c2sccc2C)c(=O)n1CC(=O)NCc1ccc(C)cc1`, the half-maximal activity concentration (AC50) under setting [2] was 4.47 µM [falling, full curve] and the AC50 under setting [1] is 5.62 µM [falling, full curve]. For the molecule `COC(=O)c1c(-c2ccc(Cl)cc2)noc1N1CCN(c2ccccc2OC)CC1`, the AC50 is 5.01 µM [falling, single point] under setting [2] and 2.82 µM [falling, full curve] under setting [1].
